Assay results reported in paper PMC1470463.

Assays:
[1] = target: T1, Bxb1 integrase (gpInt) (mycobacteriophage Bxb1) (UniProt Q9B086); test: native gel or EMSA; gpInt and gp47 with a smaller attB substrate (60 bp) (Figure S4); both purified
T1 sequence: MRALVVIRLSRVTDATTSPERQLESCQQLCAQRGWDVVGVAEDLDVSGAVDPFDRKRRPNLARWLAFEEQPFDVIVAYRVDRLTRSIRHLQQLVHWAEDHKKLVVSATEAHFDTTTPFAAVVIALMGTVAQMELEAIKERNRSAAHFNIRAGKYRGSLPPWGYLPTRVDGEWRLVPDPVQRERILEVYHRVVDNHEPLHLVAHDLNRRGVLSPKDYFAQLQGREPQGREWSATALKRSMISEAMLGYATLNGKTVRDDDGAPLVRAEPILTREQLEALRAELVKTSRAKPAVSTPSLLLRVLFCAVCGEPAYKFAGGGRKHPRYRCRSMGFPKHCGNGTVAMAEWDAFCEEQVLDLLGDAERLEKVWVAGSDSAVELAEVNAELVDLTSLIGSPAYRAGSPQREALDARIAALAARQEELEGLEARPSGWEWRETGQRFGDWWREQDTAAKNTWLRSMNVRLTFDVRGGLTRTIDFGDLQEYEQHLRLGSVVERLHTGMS

[2] = target: T1, Bxb1 integrase (gpInt) (mycobacteriophage Bxb1); test: native gel or EMSA; gpInt and high concentrations of gp47 with shorter (60 bp) attL or attR DNA substrates (Figure S4); both purified
[3] = target: T1, Bxb1 integrase (gpInt) (mycobacteriophage Bxb1); test: condition: only with gpInt on ~350-bp attL or attR DNA; gp47 up to 3.56 μM; native gel or EMSA; as a1 but with ~350-bp attL or attR DNA; gpInt 0.072 μM, gp47 0.45-3.56 μM; both purified
[4] = target: T1, Bxb1 integrase (gpInt) (mycobacteriophage Bxb1); test: native gel or EMSA; α-His antibody supershift of reactions with gpInt, gp47 and attL or attR DNA; antibody added to the premixed sample or preincubated with gp47 for 30 min; 5% native PAGE; both purified
[5] = target: T1, Bxb1 integrase (gpInt) (mycobacteriophage Bxb1); test: native gel or EMSA; radiolabelled attP or attB DNA (~300-350 bp) with gpInt 0.072 μM and gp47 0.45-3.56 μM; 20 mM Tris-HCl pH 7.5, 10 mM EDTA, 25 mM NaCl, 10 mM spermidine, 1 mM DTT, calf thymus DNA, 25 °C 1 h; 5% native PAGE at 10 °C; gp47 in Complex II confirmed by α-His supershift; gp47 only partially purified (~75%); both purified

Substance: Bxb1 gp47 with a His6 tag at the N-terminus (mycobacteriophage Bxb1)
- binding [1]: binds
- binding [2]: binds weakly
- binding [3]: no binding
- binding [4]: binds weakly
- binding [5]: binds

No constants are given. Whether binding was seen depends on the method and setting. For some assays here: A result given as binding can be weak or reduced; the word gives no strength. Sequences can lack the tags named with a protein.
